# Laboratory results published in the supplement of paper PMC3682954.
# “And” between values parts separate entries of the source, which are not always exact repeats. Equal values may be shown once. Where a name gives a salt, the structure may show the parent alone. ± gives the standard deviation of the averaged measurements. The list shows a part of the results. Many values rest on one well or one pass, so single values are uncertain.
# System: RAW 264.7
# Experiment: HMGB1-induced TNF-alpha production relative to HMGB1-stimulated control; higher = more TNF-alpha secretion (less inhibition)
# Details: stimulus: HMGB1 5 ug/ml, 18 h
# [1] = compound concentration: 1 ug/ml
Compound,HMGB1-induced TNF-alpha production (compound concentration: 3 uM),HMGB1-induced TNF-alpha production [1]
CO[C@@H]1[C@@H](O[C@@H]2O[C@H](C)[C@@H](O[C@H]3C[C@@](C)(O)[C@@H](OC(=O)CC(C)C)[C@H](C)O3)[C@H](N(C)C)[C@H]2O)[C@@H](CC=O)C[C@@H](C)[C@@H](O)/C=C/C=C/C[C@@H](C)OC(=O)C[C@H]1O,119%,–
CC[N+](C)(C)c1cccc(O)c1 [Edrophonium chloride],84 ± 18%,–
CC[N+](C)(C)c1cccc(O)c1,103%,–
OCCN1CCN(CC/C=C2/c3ccccc3Sc3ccc(C(F)(F)F)cc32)CC1 [cis-(Z)-Flupenthixol dihydrochloride],61%,–
OC[C@H]1O[C@@H](n2cnc3c(O)nc(O)nc32)[C@H](O)[C@@H]1O [Xanthosine dihydrate],–,73.1%
Cc1cn[nH]c1,78.9%,–
Cc1cn[nH]c1 [4-Methylpyrazole hydrochloride],105%,–
CC(=O)OCC(=O)[C@@]1(O)CC[C@H]2[C@@H]3CCC4=CC(=O)C=C[C@]4(C)[C@@]3(Cl)[C@@H](Cl)C[C@@]21C,38.2%,–
CC[N+](C)(CC)CCOC(=O)C1c2ccccc2Oc2ccccc21 [Methantheline bromide],133%,–
O=C(O)CN1C(=O)c2cccc3cccc(c23)C1=O,90.7%,–
CCCCN(CCCC)CCCOC(=O)c1ccc(N)cc1,92.8%,–
CCCCN(CCCC)CCCOC(=O)c1ccc(N)cc1 [Butacaine],96.6%,–
Cc1ccc(C(=O)c2ccc(CC(=O)O)n2C)cc1 [Tolmetin],86.8%,–
Cc1ccc(C(=O)c2ccc(CC(=O)O)n2C)cc1 [Tolmetin sodium salt dihydrate],85.1%,–
Cc1ccc(C(=O)c2ccc(CC(=O)O)n2C)cc1,89.9%,–
COC(=O)Nc1nc2cc(C(=O)c3cccs3)ccc2[nH]1,83.6%,–
COC(=O)Nc1nc2cc(C(=O)c3cccs3)ccc2[nH]1 [Nocodazole],82 ± 9.6%,–
CC(=O)OCC(=O)[C@@]1(O)CC[C@H]2[C@@H]3CCC4=CC(=O)CC[C@]4(C)[C@@]3(F)[C@@H](O)C[C@@]21C [Fludrocortisone acetate],29.5%,–
CC(=O)OCC(=O)[C@@]1(O)CC[C@H]2[C@@H]3CCC4=CC(=O)CC[C@]4(C)[C@@]3(F)[C@@H](O)C[C@@]21C,43.8%,–
O=C(O)CCCCCCCC(=O)O [Azelaic acid],99.1%,–
O=C(O)CCCCCCCC(=O)O,90.6 ± 2.4%,–
CC(=Cc1ccc(C(=O)O)cc1)c1ccc2c(c1)C(C)(C)CCC2(C)C,126%,–
NS(=O)(=O)c1cc(C2(O)NC(=O)c3ccccc32)ccc1Cl (configuration not stated),85.2%,–
NS(=O)(=O)c1cc(C2(O)NC(=O)c3ccccc32)ccc1Cl (configuration not stated) [Chlorthalidone],63.6%,–
CCCCCCCCCCCCCCCC(=O)OC/C=C(C)/C=C/C=C(C)/C=C/C1=C(C)CCCC1(C)C,53.1%,–
C=CC(N)CCC(=O)O (configuration not stated),82%,–

Compound,HMGB1-induced TNF-alpha production (compound concentration: 3 uM),HMGB1-induced TNF-alpha production [1]
C=CC(N)CCC(=O)O (configuration not stated) [Vigabatrin],61.7%,–
Cc1ncc(C[n+]2csc(CCO)c2C)c(N)n1,85.2%,–
CC(C)c1c(C(=O)Nc2ccccc2)c(-c2ccccc2)c(-c2ccc(F)cc2)n1CC[C@@H](O)C[C@@H](O)CC(=O)O [Atorvastatin],103%,–
CC(C)c1c(C(=O)Nc2ccccc2)c(-c2ccccc2)c(-c2ccc(F)cc2)n1CC[C@@H](O)C[C@@H](O)CC(=O)O,70.7%,–
CN(C)CCC(c1ccc(Cl)cc1)c1ccccn1 (racemic) [(±)-Chlorpheniramine maleate],80.5%,–
CC(=O)OCC(=O)[C@@]1(O)CC[C@H]2[C@@H]3CCC4=CC(=O)CC[C@]4(C)[C@H]3[C@@H](O)C[C@@]21C,51.4%,–
CC(=O)OCC(=O)[C@@]1(O)CC[C@H]2[C@@H]3CCC4=CC(=O)CC[C@]4(C)[C@H]3[C@@H](O)C[C@@]21C [Hydrocortisone 21-acetate],53.1%,–
CC(=O)OCC(=O)[C@@]1(O)CC[C@H]2[C@@H]3CCC4=CC(=O)CC[C@]4(C)[C@H]3[C@@H](O)C[C@@]21C [Cortisol acetate],47.4%,–
CCN[C@H]1CN(CCCOC)S(=O)(=O)c2sc(S(N)(=O)=O)cc21 [Brinzolamide],54.1%,–
CC(=O)S[C@@H]1CC2=CC(=O)CC[C@]2(C)[C@H]2CC[C@@]3(C)[C@@H](CC[C@@]34CCC(=O)O4)[C@H]12 [Spironolactone],91.5 ± 36%,–
CC(=O)S[C@@H]1CC2=CC(=O)CC[C@]2(C)[C@H]2CC[C@@]3(C)[C@@H](CC[C@@]34CCC(=O)O4)[C@H]12,83.2%,–
CC(C)(C)NCC(O)COc1cccc2[nH]c(=O)[nH]c12 (racemic),80.2%,–
COc1ccccc1-c1oc2ccccc2c(=O)c1OC,–,74.5%
CCCc1cc(C(N)=S)ccn1,98.7%,–
CCCc1cc(C(N)=S)ccn1 [Prothionamide],87.3 ± 2.1%,–
COc1cc(-c2oc3c(O)c(OC4OC(COC(C)=O)C(O)C(O)C4OC4OC(C)C(O)C(O)C4O)cc(O)c3c(=O)c2O)ccc1O (configuration not stated) [Haploside D],–,80.2%
CC(Cc1cccc(C(F)(F)F)c1)NCCOC(=O)c1ccccc1 (configuration not stated) [Benfluorex hydrochloride],50.6%,–
CC(Cc1cccc(C(F)(F)F)c1)NCCOC(=O)c1ccccc1 (configuration not stated),80%,–
C=C1CC[C@H](O)C/C1=C/C=C1\CCC[C@]2(C)[C@@H]([C@H](C)CCCC(C)C)CC[C@@H]12,83.2%,–
C=C1CC[C@H](O)C/C1=C/C=C1\CCC[C@]2(C)[C@@H]([C@H](C)CCCC(C)C)CC[C@@H]12 [Cholecalciferol],69.6%,–
NC1(C(=O)O)CCCCC1 [1-Amino-1-cyclohexanecarboxylic acid hydrochloride],87.4%,–
NNCCc1ccccc1,96.5% and 102%,–
NNCCc1ccccc1 [Phenelzine sulfate],121 ± 7.3%,–
C[C@H]1O[C@H](O[C@H]2[C@H](O)[C@@H](O)[C@@H](O[C@H]3[C@H](O)[C@@H](O)C(O)O[C@@H]3CO)O[C@@H]2CO)[C@H](O)[C@@H](O)[C@@H]1N[C@H]1C=C(CO)[C@@H](O)[C@H](O)[C@H]1O (some centres not stated) [Acarbose],117%,–
C[C@H]1O[C@H](O[C@H]2[C@H](O)[C@@H](O)[C@@H](O[C@H]3[C@H](O)[C@@H](O)C(O)O[C@@H]3CO)O[C@@H]2CO)[C@H](O)[C@@H](O)[C@@H]1N[C@H]1C=C(CO)[C@@H](O)[C@H](O)[C@H]1O (some centres not stated),92.4 ± 3.1%,–
CC(C)(C=O)Cc1cc(C(C)(C)C)c(O)c(C(C)(C)C)c1,76.2%,–

# Quoted at random: 3 records from the list.
Compound,HMGB1-induced TNF-alpha production (compound concentration: 3 uM),HMGB1-induced TNF-alpha production [1]
CC(C)c1c(C(=O)Nc2ccccc2)c(-c2ccccc2)c(-c2ccc(F)cc2)n1CC[C@@H](O)C[C@@H](O)CC(=O)O [Atorvastatin],103%,–
OC[C@H]1O[C@@H](n2cnc3c(O)nc(O)nc32)[C@H](O)[C@@H]1O [Xanthosine dihydrate],–,73.1%
CC(=O)OCC(=O)[C@@]1(O)CC[C@H]2[C@@H]3CCC4=CC(=O)CC[C@]4(C)[C@@]3(F)[C@@H](O)C[C@@]21C [Fludrocortisone acetate],29.5%,–

# Later entries.

Compound,HMGB1-induced TNF-alpha production (compound concentration: 3 uM),HMGB1-induced TNF-alpha production [1]
CC(C)(CO)[C@@H](O)C(=O)NCCC(=O)NCCSSCCNC(=O)CCNC(=O)[C@H](O)C(C)(C)CO,75%,–
CN1CCN(CC/C=C2/c3ccccc3Sc3ccc(S(=O)(=O)N(C)C)cc32)CC1,85.2%,–
CN1CCC(=C2c3ccccc3C=Cc3ccccc32)CC1 [Cyproheptadine hydrochloride],78.8 ± 9.1%,–
CN1CCC(=C2c3ccccc3C=Cc3ccccc32)CC1 [Cyproheptadine],85%,–
CN1CCC(=C2c3ccccc3C=Cc3ccccc32)CC1,89.4 ± 27%,–
NCC(O)C1CCCCCCC1 (configuration not stated) [2-Cyclooctyl-2-hydroxyethylamine hydrochloride],82.1%,–
CC(C)(C)NC[C@@H](O)COc1cccc2c1CCCC2=O [(+) -Levobunolol hydrochloride],97.2%,–
CO[C@H]1/C=C/O[C@@]2(C)Oc3c(C)c(O)c4c(O)c(c(/C=N/N5CCN(C6CCCC6)CC5)c(O)c4c3C2=O)NC(=O)/C(C)=C\C=C\[C@H](C)[C@H](O)[C@@H](C)[C@@H](O)[C@@H](C)[C@H](OC(C)=O)[C@@H]1C [Rifapentine],69.4%,–
CO[C@H]1/C=C/O[C@@]2(C)Oc3c(C)c(O)c4c(O)c(c(/C=N/N5CCN(C6CCCC6)CC5)c(O)c4c3C2=O)NC(=O)/C(C)=C\C=C\[C@H](C)[C@H](O)[C@@H](C)[C@@H](O)[C@@H](C)[C@H](OC(C)=O)[C@@H]1C,91.4%,–
N=C(N)NC(=N)NCCc1ccccc1 [Phenformin hydrochloride],87.1%,–
N=C(N)NC(=N)NCCc1ccccc1,107%,–
CC(=O)OCC(=O)[C@@]1(O)[C@@H](C)C[C@H]2[C@@H]3CCC4=CC(=O)C=C[C@]4(C)[C@@]3(F)[C@@H](O)C[C@@]21C,33.7%,–
C[C@@H]1C[C@H]2[C@@H]3C[C@H](F)C4=CC(=O)C=C[C@]4(C)[C@@]3(F)[C@@H](O)C[C@]2(C)[C@@]1(O)C(=O)CO [Flumethasone],37%,–
C[C@@H]1C[C@H]2[C@@H]3C[C@H](F)C4=CC(=O)C=C[C@]4(C)[C@@]3(F)[C@@H](O)C[C@]2(C)[C@@]1(O)C(=O)CO,31.3%,–
O=C(O)Cc1ccc(-c2ccccc2)cc1 [Felbinac],106%,–
O=C(O)c1cn(-c2ccc(F)cc2)c2cc(N3CCNCC3)c(F)cc2c1=O [Sarafloxacin],104 ± 8.4%,–
O=C(O)c1cn(-c2ccc(F)cc2)c2cc(N3CCNCC3)c(F)cc2c1=O,102%,–
CC[C@H](/C=C/[C@@H](C)[C@H]1CC[C@H]2[C@@H]3CC=C4C[C@@H](O)CC[C@]4(C)[C@H]3CC[C@]12C)C(C)C [Stigmasterol],–,79.7%
C[N+]1(C)CCC(OC(=O)C(O)(c2ccccc2)C2CCCC2)C1 (configuration not stated) [Glycopyrrolate],103%,–
C[N+]1(C)CCC(OC(=O)C(O)(c2ccccc2)C2CCCC2)C1 (configuration not stated),95 ± 21%,–
Clc1ccc(CCC(Cn2ccnc2)Sc2c(Cl)cccc2Cl)cc1 (configuration not stated) [Butoconazole nitrate],72.7%,–
N#Cc1ccc(C(c2ccc(C#N)cc2)n2cncn2)cc1,103%,–
N#Cc1ccc(C(c2ccc(C#N)cc2)n2cncn2)cc1 [Letrozole],95.8 ± 9.1%,–
COc1c2occc2cc2ccc(=O)oc12,95.7%,–
COc1c2occc2cc2ccc(=O)oc12 [8-Methoxypsoralen],–,72.3%
